Article PMC12357876
Results are given in words; binding and its absence hold for the method and conditions named. Binding seen in cells or lysates may run through a third protein. Some binding calls cover weakened binding; strength is not graded here.

Amino acid sequences for entries named in this document (tags omitted).
UniProt P67809: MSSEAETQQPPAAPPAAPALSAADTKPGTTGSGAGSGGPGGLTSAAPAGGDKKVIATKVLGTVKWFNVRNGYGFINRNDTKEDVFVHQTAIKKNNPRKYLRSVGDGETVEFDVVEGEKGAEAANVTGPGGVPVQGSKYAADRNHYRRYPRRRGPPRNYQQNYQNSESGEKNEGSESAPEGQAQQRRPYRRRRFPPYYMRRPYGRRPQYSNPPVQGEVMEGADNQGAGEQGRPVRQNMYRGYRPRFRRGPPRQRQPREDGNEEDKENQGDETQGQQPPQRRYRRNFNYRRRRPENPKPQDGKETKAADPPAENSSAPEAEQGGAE

Biological target: T1, TRIM31 (human (endogenous in HT-29 and DLD-1)) (UniProt Q9BZY9)
T1 sequence: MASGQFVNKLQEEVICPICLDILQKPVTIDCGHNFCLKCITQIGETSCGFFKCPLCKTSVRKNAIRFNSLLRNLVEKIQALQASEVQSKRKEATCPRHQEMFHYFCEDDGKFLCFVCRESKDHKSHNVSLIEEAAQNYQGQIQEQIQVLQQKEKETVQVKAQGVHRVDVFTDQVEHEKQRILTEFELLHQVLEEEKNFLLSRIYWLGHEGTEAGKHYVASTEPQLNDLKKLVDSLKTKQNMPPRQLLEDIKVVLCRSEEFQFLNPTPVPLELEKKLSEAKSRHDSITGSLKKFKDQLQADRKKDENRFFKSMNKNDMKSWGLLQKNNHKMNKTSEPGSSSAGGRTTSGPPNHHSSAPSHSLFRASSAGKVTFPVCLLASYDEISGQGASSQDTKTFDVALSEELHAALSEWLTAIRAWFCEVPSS
Test: co-IP; IP from lysates of HT-29 and DLD-1 cells (RIPA buffer, 4 °C, protein A + G agarose beads), Western blot

With “Y-box binding protein 1 (YBX1) (from UniProt P67809 1-324)” the binding was “binds”.
